Record: PubChem BioAssay AID652243 (Drosophila RNAi Screening Center, 2013)

Test: 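Knock-downs that decrease or increase androgen receptor reporter signal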 (primary screen)
Cells: Drosophila S2R+ cells
Reagents: long dsRNA against Drosophila genes
Timing: 72 h (48 h, then 24 h hormone)
Challenge: synthetic androgen R1881 at 10 nM for 24 h
Measurement: 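Firefly light from an androgen-responsive reporter and Renilla control light per well, raw and unnormalised, for each of two replicates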
Reading the numbers: firefly reporter light: higher = more light from androgen-responsive reporter; Renilla control light: higher = more constitutive control signal (cell number, transfection)
Call rule: 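Across duplicate plates, a knock-down whose log firefly/Renilla ratio shifted a set fold down or up from the GFP/LacZ control mean was a hit; the downward cut appears as both 1.5 and 3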
Meaning of the calls: active = hit: reporter lowered or raised; inactive = no hit
In all, the deposit lists about 24,000 reagents; below is a random part of those that have a named target and a result. Of all reagents, 246 (1%) are marked active. 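Plates not normalised; calls are printed but the firefly/Renilla ratio behind them is not deposited; fold cut for lowering reported inconsistently.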 Raw values are not corrected between plates. Entries without a mark were called inactive. The numbers tell different reagents against one gene apart. Names joined by + are all predicted targets of the reagent. No sequences are given here. The record does not give: the amount of reagent.

no.	Target gene	reagent	firefly reporter light, replicate 1	firefly reporter light, replicate 2	Renilla control light, replicate 1	Renilla control light, replicate 2
1	Ccdc58 + CG34116	1	1.95e5	1.58e5	2.39e6	2.15e6
2	CG33062 (GeneID 318840)	1	3.44e5	3.82e5	1.40e6	1.01e6
3	CG33062 (GeneID 318840)	2	2.49e5	2.22e5	6.25e5	8.13e5
4	Pgant4 (GeneID 261610)	1	1.53e5	1.09e5	1.01e6	7.64e5
5	Pgant4 (GeneID 261610)	2	2.60e5	4.05e5	8.20e5	8.20e5
6	Gr10a (GeneID 117501)	1	1.28e6	4.33e5	2.01e6	7.13e5
7	Gr10a (GeneID 117501)	2	7.92e5	1.37e6	1.25e6	1.61e6
8	Gr10a (GeneID 117501)	3	4.27e5	3.09e5	6.17e5	5.25e5
9	CG11883 (GeneID 36121)	1	9.71e5	9.35e5	1.62e6	1.59e6
10	Stim (GeneID 32556)	1	1.06e5	1.55e5	6.41e5	6.91e5
11	cyst (GeneID 35237)	1	7.38e5	8.02e5	1.58e6	1.47e6
12	CG13919 (GeneID 38200)	1	94426	61176	8.70e5	7.80e5
13	trpl (GeneID 36003)	1	2.33e5	1.61e5	1.82e6	1.36e6
14	trpl (GeneID 36003)	2	7.10e5	9.64e5	1.94e6	2.65e6
15	trpl (GeneID 36003)	3	1.95e5	2.22e5	4.29e5	4.56e5
16	Vps51 (GeneID 37156)	1	1.06e6	1.25e5	1.04e6	2.74e5
17	Ir94c (GeneID 318727)	1	99545	1.42e5	1.65e5	2.08e5
18	CG33170 (GeneID 326267)	1	8.71e5	8.82e5	1.22e6	1.33e6
19	RpL28 + snoRNA:Me28S-C3351	1	3.77e5	3.81e5	4.81e5	2.82e5
20	pck (GeneID 31101)	1	1.07e5	1.22e5	6.23e5	5.53e5
21	CG42390 (GeneID 42600)	1	5.75e5	7.52e5	1.73e6	2.04e6
22	CG42390 (GeneID 42600)	2	8.23e5	8.34e5	2.26e6	2.31e6
23	E(spl)m6-BFM (GeneID 43159)	1	2.35e5	2.53e5	2.43e6	2.45e6
24	CG15673 (GeneID 37459)	1	2.03e5	2.27e5	1.46e6	1.60e6

Individual results from the list.
Under “Renilla control light, replicate 1”, CG15673 (GeneID 37459) has 1.46e6
Vps51 (GeneID 37156), Renilla control light, replicate 1 → 1.04e6
Entry of CG42390 (GeneID 42600) #1 under “firefly reporter light, replicate 1”: 5.75e5
